Measured values published in paper PMC11056506.
No constants are given. Whether binding was seen depends on the method and setting. In cells and extracts the contact can be indirect. Some entries that bind do so weakly or less than the wild type.

By UniProt entry, the sequences of proteins in these tests, tags left out.
UniProt O08573: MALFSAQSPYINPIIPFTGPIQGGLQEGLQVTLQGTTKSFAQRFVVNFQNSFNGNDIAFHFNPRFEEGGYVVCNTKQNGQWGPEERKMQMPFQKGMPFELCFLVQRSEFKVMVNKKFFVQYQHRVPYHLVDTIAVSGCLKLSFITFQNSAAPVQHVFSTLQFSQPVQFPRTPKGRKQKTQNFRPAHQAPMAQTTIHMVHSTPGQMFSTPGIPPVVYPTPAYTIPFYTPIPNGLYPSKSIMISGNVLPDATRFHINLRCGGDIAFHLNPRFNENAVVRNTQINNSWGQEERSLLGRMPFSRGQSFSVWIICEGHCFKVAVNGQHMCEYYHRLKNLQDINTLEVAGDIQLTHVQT

Target: Galectin-9 (mouse (endogenous in mouse intestinal tissue)) (UniProt O08573)
Experiment: co-IP; lysates of mice intestinal tissues immunoprecipitated with IP antibody-coupled agarose beads, then western blotting; IgG as negative control; IP antibody not named

binding: binds
B1: Carcinoembryonic antigen-related cell adhesion molecule 5 (CEACAM5) (protein, UniProt Q3UKK2 35-947)
chain: QITIELEPPQVIEGENVLIRVNNLTENLITLAWFRGMRIKSPQIGQYTPATKVTVLGPGHSGRETLYSNGSLQIYNVTQEDIGFYSLRIINKHAEIVSITSIYLNVYSSLWTCEHPSPHAKLTIESVPPGISEGGSVLLLVKNLPQNLLSLFWYKGVIAVKKFEIARHIKATNSSVPGPAHTGRETVFSNGSLLLQEVMQSDTGFYTLRTMSTDLKDEVAHVQLYMDTYLLTCYHPLQVKIESLPQNVAVGKTVLLLVHNLPEDFQAFFWYKSAYRRDTYKIAEYKRAMDATILGSAYSSREFIYNNGSMLIIDVTEDDAGYFLLEILREDLKIEKAYIQLHVNSFVSNSKDSASTARLSIESVPPSIVEGGSVLLLVHNLPKNLQSLFWYKGMIAEKKSELIQHIIATSSSLPGPAHSGRETVYNNGSLLLQRVMQNDTQFYTLQTMDTDLKYEVAHVQLQLDTSLSTWYHPLQVKIESLPRNVAVGKSVLFLVHNFPEVFRAFSWYKPAYKSHTSKIVEYHRFTDSATVGAAYRGIEVIFTNGSMVMIDVTEDDAGFYMLEILREDFKVEKAYVQLHVNSFVPNSKVSVSTARLSIESVPPSIVGGESVLLLVHNLPKNLQSLFWYKGVIAEEKSELIQHIIATSSSLPGPAHSGRETVYSNGSLLLQRVMQNDTGFYTLLTMSTDLKDEIAHVQLQLDTSTCCSLLTSDQLIIVPVPRNIAVGKSVLLLVCNVPKDVQTIFWYKSVYRTDIFKIAEYSRSMESTIWGLAHSGKEMVYTNGSLLIQNVTEHDAGLYMLEILHKDYKLERAHVQVHVNNPVSWPFVRVTDTTVRVQSSVVFTCFSADPGVSIRWLFNKQSLQLTERMTLSPSKCQLSIDPVWREDAGKYQCEVSNPVSSKSSLPVRLAVIEE
